The record followed here is PMC12267381.

No constants are given. Whether binding was seen depends on the method and setting. In cells and extracts the contact can be indirect. Some entries that bind do so weakly or less than the wild type.

The test deals with T1, Sterol regulatory element binding protein 1 (mouse (endogenous in bEND.3)) (UniProt Q9WTN3).
T1 sequence: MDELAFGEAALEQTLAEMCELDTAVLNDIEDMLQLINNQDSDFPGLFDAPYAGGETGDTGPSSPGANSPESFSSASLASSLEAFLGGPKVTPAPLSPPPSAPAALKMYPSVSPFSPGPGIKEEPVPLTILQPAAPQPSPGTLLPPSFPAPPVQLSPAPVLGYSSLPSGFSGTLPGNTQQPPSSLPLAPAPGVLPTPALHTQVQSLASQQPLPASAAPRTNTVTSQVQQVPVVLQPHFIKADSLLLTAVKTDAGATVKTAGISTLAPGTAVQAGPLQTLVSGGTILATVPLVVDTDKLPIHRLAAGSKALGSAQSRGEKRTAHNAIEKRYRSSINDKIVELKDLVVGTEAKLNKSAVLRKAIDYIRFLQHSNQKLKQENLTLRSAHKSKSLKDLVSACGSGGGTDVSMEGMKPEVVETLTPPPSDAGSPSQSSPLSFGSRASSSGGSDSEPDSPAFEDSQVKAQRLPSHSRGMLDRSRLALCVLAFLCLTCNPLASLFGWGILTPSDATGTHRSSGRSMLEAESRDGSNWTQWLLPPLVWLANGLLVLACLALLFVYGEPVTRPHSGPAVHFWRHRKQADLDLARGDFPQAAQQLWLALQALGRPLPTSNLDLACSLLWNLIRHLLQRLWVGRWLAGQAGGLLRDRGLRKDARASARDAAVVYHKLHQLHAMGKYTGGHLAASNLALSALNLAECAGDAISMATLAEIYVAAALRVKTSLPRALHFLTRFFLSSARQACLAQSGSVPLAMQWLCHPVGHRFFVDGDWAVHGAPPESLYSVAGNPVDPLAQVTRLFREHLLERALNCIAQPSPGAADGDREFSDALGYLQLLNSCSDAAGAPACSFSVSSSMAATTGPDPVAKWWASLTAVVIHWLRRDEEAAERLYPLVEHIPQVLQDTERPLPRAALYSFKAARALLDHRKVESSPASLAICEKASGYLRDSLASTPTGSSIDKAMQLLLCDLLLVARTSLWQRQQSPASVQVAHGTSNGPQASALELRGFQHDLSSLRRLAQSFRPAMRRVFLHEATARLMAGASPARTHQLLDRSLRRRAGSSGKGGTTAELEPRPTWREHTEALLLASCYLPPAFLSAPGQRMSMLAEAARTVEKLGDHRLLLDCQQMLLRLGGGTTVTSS
The test can be described thus: co-IP; anti-SREBP1 antibody (Santa Cruz sc-365513) and protein A/G magnetic beads added to lysate of bEND.3 endothelial cells, room temperature 2 h; immunoblot of the precipitate; cells treated for 24 h with Erastin or Erastin + SDF-1α, with or without MTDH siRNA. In general terms: In western blotting, separated proteins are transferred to a membrane and probed.

B1: INSIG1 (protein, UniProt Q8BGI3 1-259)
chain: MPRLHDHVWNYPSAGAARPYSLPRGMIAAAACPQGPGVPEPEHAPRGQRAGTTGCSARPGSWHHDLVQRSLVLFSFGVVLALVLNLLQIQRNVTLFPDEVIATIFSSAWWVPPCCGTAAAVVGLLYPCIDSHLGEPHKFKREWASVMRCIAVFVGINHASAKLDFANNVQLSLTLAALSLGLWWTFDRSRSGLGLGITIAFLATLITQFLVYNGVYQYTSPDFLYIRSWLPCIFFSGGVTVGNIGRQLAMGVPEKPHSD
With B1, the binding entry was “binds”.

B2: INSIG2 (protein, UniProt Q91WG1 1-225)
chain: MAEGETESPRPKKCGPYISSVTSQSVNVVIRGVVLFFIGVFLALVLNLLQIQRNVTLFPPDVITSIFSSAWWVPPCCGTASAVIGLLYPCIDRHLGEPHKFKREWSSVMRCVAVFVGINHASAKVDFDNNFQFSLTLAALSVGLWWTFDRSRSGFGLGVGIAFLATVVTQLLVYNGVYQYTSPDFLYVRSWLPCIFFAGGITMGNIGRQLAMYECKVIAEKSHQE
As for B2, the binding entry is reported as “binds”.

B3: metadherin (protein, UniProt Q80WJ7 1-579)
chain: MAARSWQDELAQQAEEGSARLRELLSVGLGFLRTELGLDLGLEPKRYPGWVILVGTGALGLLLLFLLGYGWAAACAGARKKRRSPPRKREEAAPPTPAPDDLAQLKNLRSEEQKKKNRKKLPEKPKPNGRTVEVPEDEVVRNPRSITAKQAPETDKKNEKSKKNKKKSKSDAKAVQNSSRHDGKEVDEGAWETKISHREKRQQRKRDKVLTDSGSLDSTIPGIENIITVTTEQLTTASFPVGSKKNKGDSHLNVQVSNFKSGKGDSTLQVSSRLNENLTVNGGGWSEKSVKLSSQLSEEKWNSVPPASAGKRKTEPSAWTQDTGDTNANGKDWGRNWSDRSIFSGIGSTAEPVSQSTTSDYQWDVSRNQPYIDDEWSGLNGLSSADPSSDWNAPAEEWGNWVDEDRASLLKSQEPISNDQKVSDDDKEKGEGALPTGKSKKKKKKKKKQGEDNSHTQDTEDLEKDTREELPVNTSKARPKQEKACSLKTMSTSDPAEVLIKNSQPVKTLPPAISAEPSITLSKGDSDNSSSQVPPMLQDTDKPKSNAKQNSVPPSQTKSETNWESPKQIKKKKKARRET
As to B3, the binding entry is on record as “binds”.
